Source: patent publication US7368430B2, “Selective inhibitors of nuclear factor-κB activation and uses thereof” (Research Development Foundation, priority 2003, dated 2008)
Part of at least one peptide drawing is inferred or uncertain, most often the ends. Where a SMILES comes first, the peptide text is derived from it.

Protein sequences, listed by entry. Tags and fused reporters are not part of them. Lines headed by an entry give the natural chain unless they say otherwise; changes in a name come on top.
UniProt Q04206, whole entry: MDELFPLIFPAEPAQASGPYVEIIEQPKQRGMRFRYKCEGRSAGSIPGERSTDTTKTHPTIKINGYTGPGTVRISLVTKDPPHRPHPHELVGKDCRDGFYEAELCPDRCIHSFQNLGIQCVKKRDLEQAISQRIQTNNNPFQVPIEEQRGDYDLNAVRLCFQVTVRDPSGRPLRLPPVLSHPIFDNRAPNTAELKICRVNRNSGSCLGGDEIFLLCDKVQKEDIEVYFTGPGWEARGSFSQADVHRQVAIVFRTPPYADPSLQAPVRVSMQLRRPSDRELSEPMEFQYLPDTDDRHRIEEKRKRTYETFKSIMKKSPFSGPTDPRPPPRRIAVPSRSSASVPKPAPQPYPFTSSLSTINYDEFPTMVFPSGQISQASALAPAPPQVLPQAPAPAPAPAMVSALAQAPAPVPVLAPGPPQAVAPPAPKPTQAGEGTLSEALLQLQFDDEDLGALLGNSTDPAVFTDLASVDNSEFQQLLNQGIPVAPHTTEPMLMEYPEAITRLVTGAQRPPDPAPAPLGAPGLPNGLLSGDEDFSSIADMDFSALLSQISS
UniProt O14920: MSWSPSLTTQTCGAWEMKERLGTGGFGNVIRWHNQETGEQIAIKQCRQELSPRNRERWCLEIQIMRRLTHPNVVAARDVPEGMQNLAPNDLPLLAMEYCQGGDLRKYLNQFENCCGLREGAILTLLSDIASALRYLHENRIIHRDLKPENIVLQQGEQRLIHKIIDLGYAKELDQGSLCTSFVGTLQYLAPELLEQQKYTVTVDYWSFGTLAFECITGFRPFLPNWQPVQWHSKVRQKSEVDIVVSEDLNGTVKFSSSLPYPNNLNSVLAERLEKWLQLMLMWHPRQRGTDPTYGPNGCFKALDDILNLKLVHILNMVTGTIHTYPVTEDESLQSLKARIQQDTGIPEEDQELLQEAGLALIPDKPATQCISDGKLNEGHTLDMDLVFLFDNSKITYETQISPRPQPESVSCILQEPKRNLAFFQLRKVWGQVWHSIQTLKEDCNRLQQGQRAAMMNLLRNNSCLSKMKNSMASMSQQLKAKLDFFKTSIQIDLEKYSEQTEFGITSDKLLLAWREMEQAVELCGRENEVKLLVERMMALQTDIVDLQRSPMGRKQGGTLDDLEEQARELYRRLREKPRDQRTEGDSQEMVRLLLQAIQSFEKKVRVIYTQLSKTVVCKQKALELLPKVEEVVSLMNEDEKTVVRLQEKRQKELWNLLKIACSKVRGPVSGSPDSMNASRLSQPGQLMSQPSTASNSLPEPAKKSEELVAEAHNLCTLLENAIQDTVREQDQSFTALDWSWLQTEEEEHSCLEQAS
UniProt O15111: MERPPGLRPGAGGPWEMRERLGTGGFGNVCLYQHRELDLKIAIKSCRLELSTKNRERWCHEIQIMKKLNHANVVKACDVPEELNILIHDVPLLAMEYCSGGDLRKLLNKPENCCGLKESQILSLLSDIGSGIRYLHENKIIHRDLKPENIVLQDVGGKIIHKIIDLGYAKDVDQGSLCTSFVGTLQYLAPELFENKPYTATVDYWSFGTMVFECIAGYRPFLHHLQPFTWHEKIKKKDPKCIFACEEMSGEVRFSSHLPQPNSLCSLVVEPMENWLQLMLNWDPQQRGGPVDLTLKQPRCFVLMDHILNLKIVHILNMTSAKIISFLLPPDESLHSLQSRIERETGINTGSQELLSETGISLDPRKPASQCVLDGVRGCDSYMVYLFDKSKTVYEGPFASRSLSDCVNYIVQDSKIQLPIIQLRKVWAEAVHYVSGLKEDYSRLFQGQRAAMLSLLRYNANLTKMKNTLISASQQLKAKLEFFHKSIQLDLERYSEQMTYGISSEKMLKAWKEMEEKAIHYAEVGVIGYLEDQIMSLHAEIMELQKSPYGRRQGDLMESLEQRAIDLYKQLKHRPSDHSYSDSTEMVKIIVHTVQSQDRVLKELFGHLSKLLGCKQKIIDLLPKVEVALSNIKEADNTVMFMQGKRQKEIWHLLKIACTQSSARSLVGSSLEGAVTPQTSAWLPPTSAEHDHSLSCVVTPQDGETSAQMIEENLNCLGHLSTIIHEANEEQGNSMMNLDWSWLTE

What was measured:
NF-κB = test: EMSA of NF-κB activation in KBM-5 cells preincubated with peptides; assay type: cell-based; conditions: for suppression of TNF-induced NF-κB activation: 0.1 nM TNF 30 min (FIG. 3B); for effect on TNF-induced NF-κB activation (EMSA, time course): 150 μM peptides 1 h, then 0.1 nM TNF for indicated times (FIG. 3A)
Method: (§1) NF-κB activation was examined by electrophoretic mobility shift assays as described (Chaturvedi et al., 1994; Takada and Aggarwal). Briefly, nuclear extracts prepared from TNF-treated cells (1×10^6/ml) were incubated with ^32P-end-labeled 45-mer double-stranded NF-κB oligonucleotide (10 ug of protein with 16 fmol of DNA) from the human immunodeficiency virus long terminal repeat, 5′-[…] CAGGGAGGCGTGG-3′ (SEQ ID NO. 1, boldface indicates NF-κB binding sites) for 30 min at 37° C., and the DNA-protein complex formed was separated from free oligonucleotide on 6.6% native polyacrylamide gels. A double-stranded mutated oligonucleotide, 5′-[…]-3′(SEQ ID NO. 2) was used to examine the specificity of binding of NF-κB to the DNA. The specificity of binding was also examined by competition with unlabeled oligonucleotide.
To determine the effects of peptide containing Ser 276 (PTD-p65-P1), KBM-5 cells was preincubated with the peptides for 1 h, and then treated with 0.1 nM TNF for the indicated times. Nuclear extracts were prepared, and NF-κB activation was analyzed by electrophoretic mobility shift assays (EMSA). […] Minimum dose of PTD-p65-P1 required to suppress NF-κB activation was also investigated. PTD-p65-P1 suppressed TNF-induced NF-κB activation by 25% at 100 μM and completely at 150 μM (FIG. 3B).
To determine the effects of peptide containing Ser 529 and 536 (PTD-p65-P6), KBM-5 cells were preincubated with various concentrations of peptides for 1 h and then treated with 0.1 nM TNF for 30 min.
Lipopolysaccharide, IL-1, okadaic acid, PMA, H2O2, and cigarette smoke condensate are potent activators of NF-κB, but the mechanisms differ. The inventors examined whether PTD-p65-P1 could suppress NF-κB activated by these agents. Cells were preincubated with 150 μM protein transduction domain-p65-P1 for 1 h, treated with 0.1 nM TNF, 1 μg/ml LPS, 100 ng/ml IL-1, 500 nM okadaic acid, 10 ng/ml PMA, 500 μM H2O2, or 1 μg/ml cigarette smoke condensate and then analyzed for NF-κB activation by EMSA.

[1] = target: T1, NF-κB (p50-p65) binding to DNA (Homo sapiens, UniProt Q04206); test: EMSA of NF-κB binding to DNA, nuclear extracts of TNF-treated cells incubated with peptides in vitro; assay type: biochemical; conditions: for dose-dependent effect on p50-p65 binding to DNA: nuclear extracts from TNF-treated cells, different concentrations of peptide, 30 min (FIG. 2B)
T1 construct: endogenous in cells; host or cells: KBM-5 cells, TNF-treated, nuclear extract
Method: Nuclear extracts were prepared from TNF-treated cells, incubated for 30 min with various concentrations of peptides, and then assayed for NF-κB activation by EMSA.
as §1
The dose-dependent effect of protein transduction domain-p65-P1 and p65-P1 on p50-p65 binding to DNA was investigated. […] The protein transduction domain alone had no effect.

AP-1 = test: EMSA of TNF-induced AP-1 activation; assay type: cell-based; conditions: KBM-5 cells, 0.1 nM TNF (FIG. 4A)
IκBα = test: Western blot of IκBα phosphorylation and degradation; assay type: cell-based; conditions: 150 μM peptide 1 h, 0.1 nM TNF (FIG. 5A)
p65 = test: Western blot of p65 phosphorylation and nuclear translocation; assay type: cell-based; conditions: 150 μM peptide 1 h, 0.1 nM TNF (FIG. 5A)
IKK = target: T2, IKK (Homo sapiens, UniProt O14920+O15111); test: Immune complex kinase assay of TNF-induced IKK activation; assay type: cell-based; conditions: 150 μM peptide 1 h, 0.1 nM TNF (FIG. 5B)
T2 construct: Whole-cell extracts were prepared, incubated with anti-IKK-α antibody, and then immunoprecipitated using protein A/G-Sepharose beads; Whole-cell extracts were fractionated on 7.5% SDS-PAGE and immunoblotted using anti-IKK-α and anti-IKK-β antibodies; endogenous in cells

[2] = system: NF-κB-dependent reporter gene expression in A293 cells; test: NF-κB-dependent reporter SEAP expression assay; assay type: cell-based; conditions: for effect on TNF-induced NF-κB-dependent SEAP reporter gene expression: 150 μM peptides, 1 nM TNF (FIG. 6A)
[3] = system: cyclin D1, COX-2 and MMP-9; test: Western blot of TNF-induced cyclin D1, COX-2 and MMP-9 expression; assay type: cell-based; conditions: KBM-5 cells, 150 μM peptide 1 h, 0.1 nM TNF (FIG. 6C)
KBM-5 cells [4] = test: Live/Dead assay of TNF-induced apoptosis; assay type: cell-based; conditions: 100 μM peptide, then 1 nM TNF 16 h (FIG. 7B)
KBM-5 cells [5] = test: TUNEL assay of TNF-induced apoptosis; assay type: cell-based; conditions: 100 μM peptide, then 1 nM TNF 16 h
IKK complex = target: T3, IKK complex (Homo sapiens, UniProt O14920+O15111); test: Cell-free phosphorylation of p65 peptides by immunoprecipitated IKK complex; assay type: biochemical; conditions: 10 μg of peptides as substrate (FIG. 5C)
T3 construct: Whole-cell extracts were prepared from TNF-treated cells and immunoprecipitated with antibody against IKK-α; endogenous in cells
Method: Whole-cell extracts were prepared from TNF-treated cells and immunoprecipitated with antibody against IKK-α. Thereafter immunocomplex kinase assay was performed in the presence of the peptides as a substrate.
To determine the total amounts of IKK-α and IKK-β in each sample, […] of the whole-cell protein was resolved on 7.5% SDS-PAGE, electrotransferred to a nitrocellulose membrane, and then blotted with either anti-IKK-α or anti-IKK-β antibodies. Cell-free phosphorylation of peptide by IKK was also determined using 10 μg of peptides as a substrate in the kinase reaction mixture described above, and then fractionated on 20% SDS-PAGE in 2×SDS electrophoresis buffer.
p65-P1 and p65-p6 have one or two serine residues respectively. Whether these serine residues can be phosphorylated by IKK was investigated. Whole-cell extracts from TNF-treated cells were immunoprecipitated with antibody against IKK and then immunocomplex kinase assay was performed using p65-peptides as substrates. After reaction, samples were fractionated on 20% SDS-PAGE with 2-fold electrophoresis buffer.

SMILES | suppression of TNF-induced NF-κB activation (NF-κB; 100 μM peptide 1 h) [%] | suppression of TNF-induced NF-κB activation (NF-κB; 150 μM peptide 1 h) | effect on TNF-induced NF-κB activation (EMSA, time course) (NF-κB) | dose-dependent effect on p50-p65 binding to DNA [1] | effect on TNF-induced AP-1 activation (AP-1) | effect on TNF-induced degradation of IκBα (IκBα) | effect on TNF-induced phosphorylation of IκBα (IκBα) | effect on TNF-induced nuclear translocation of p65 (p65) | effect on TNF-induced phosphorylation of p65 (p65) | effect on TNF-induced IKK activation (IKK) | effect on TNF-induced NF-κB-dependent SEAP reporter gene expression [2] | effect on NF-κB reporter gene expression induced by transfected plasmids ([2]; TNFR 1-, TRADD-, TRAF 2-, NIK-, IKK- and p65-expressing plasmids, 150 μM peptide (FIG. 6B)) | effect on TNF-induced expression of cyclin D1, COX-2 and MMP-9 [3] | TNF-induced apoptosis (Live/Dead assay) (KBM-5 cells [4]) [%] | effect on TNF-induced apoptosis (FIG. 7C staining) (KBM-5 cells [5]) | concentration of maximum inhibition of NF-κB binding ([1]; nuclear extracts from TNF-treated cells (FIG. 2B)) [µM] | phosphorylation of the peptide by IKK complex (IKK complex) | effect on TNF-induced NF-κB activation (EMSA, dose response) (NF-κB; various concentrations of peptides 1 h, 0.1 nM TNF 30 min (FIG. 3C))
CC[C@H](C)[C@H](NC(=O)[C@H](CCCCN)NC(=O)[C@@H](NC(=O)[C@H](CCC(N)=O)NC(=O)[C@H](CCCNC(=N)N)NC(=O)[C@@H](N)CC(=O)O)[C@@H](C)CC)C(=O)N[C@@H](Cc1c[nH]c2ccccc12)C(=O)N[C@@H](Cc1ccccc1)C(=O)N[C@@H](CCC(N)=O)C(=O)N[C@@H](CC(N)=O)C(=O)N[C@@H](CC(N)=O)C(=O)N[C@@H](CCCNC(=N)N)C(=O)N[C@@H](CCCNC(=N)N)C(=O)N[C@@H](CCSC)C(=O)N[C@@H](CCCCN)C(=O)N[C@@H](Cc1c[nH]c2ccccc12)C(=O)N[C@@H](CCCCN)C(=O)N[C@@H](CCCCN)C(=O)N[C@@H](CCC(N)=O)C(=O)N[C@@H](CC(C)C)C(=O)N[C@@H](CCCNC(=N)N)C(=O)N[C@@H](CCCNC(=N)N)C(=O)N1CCC[C@H]1C(=O)N[C@@H](CO)C(=O)N[C@@H](CC(=O)O)C(=O)N[C@@H](CCCNC(=N)N)C(=O)N[C@@H](CCC(=O)O)C(=O)N[C@@H](CC(C)C)C(=O)N[C@@H](CO)C(=O)N[C@@H](CCC(=O)O)C(=O)O [PTD-p65-P1] (H-DRQIKIWFQNNRRMKWKKQLRRPSDRELSE-OH) | 25 | completely | completely abolished | inhibited NF-κB binding at the same concentration | had no effect | had no effect | had no effect | inhibiting phosphorylation and nuclear translocation of p65 | suppressed it almost completely | had no effect | completely suppressed | suppressed NF-κB reporter gene expression induced by all | blocked | 45 | enhanced TNF-induced apoptosis | – | – | –
CC(C)C[C@H](NC(=O)[C@H](CCC(=O)O)NC(=O)[C@H](CCCNC(=N)N)NC(=O)[C@H](CC(=O)O)NC(=O)[C@H](CO)NC(=O)[C@@H]1CCCN1C(=O)[C@H](CCCNC(=N)N)NC(=O)[C@H](CCCNC(=N)N)NC(=O)[C@H](CC(C)C)NC(=O)[C@@H](N)CCC(N)=O)C(=O)N[C@@H](CO)C(=O)N[C@@H](CCC(=O)O)C(=O)O [p65-P1, QLRRPSDRELSE] (H-QLRRPSDRELSE-OH) | – | – | Neither a protein transduction domain nor p65-P1 alone had any effect | inhibited NF-κB binding in a dose-dependent manner | – | – | – | – | – | – | failed to suppress | – | – | – | – | 50 | can phosphorylate | –
CC[C@H](C)[C@H](NC(=O)[C@H](CCCCN)NC(=O)[C@@H](NC(=O)[C@H](CCC(N)=O)NC(=O)[C@H](CCCNC(=N)N)NC(=O)[C@@H](N)CC(=O)O)[C@@H](C)CC)C(=O)N[C@@H](Cc1c[nH]c2ccccc12)C(=O)N[C@@H](Cc1ccccc1)C(=O)N[C@@H](CCC(N)=O)C(=O)N[C@@H](CC(N)=O)C(=O)N[C@@H](CC(N)=O)C(=O)N[C@@H](CCCNC(=N)N)C(=O)N[C@@H](CCCNC(=N)N)C(=O)N[C@@H](CCSC)C(=O)N[C@@H](CCCCN)C(=O)N[C@@H](Cc1c[nH]c2ccccc12)C(=O)N[C@@H](CCCCN)C(=O)N[C@@H](CCCCN)C(=O)O [protein transduction domain, reference compound] (H-DRQIKIWFQNNRRMKWKK-OH) | – | – | Neither a protein transduction domain nor p65-P1 alone had any effect | had no effect | – | – | – | – | – | – | failed to suppress | – | – | – | – | – | – | Neither a protein transduction domain nor p65-P6 alone had any effect
